Laboratory results taken from patent US20240358862A1, “Synthesis Method and Application of a Near-infrared Probe GGa-ICG specific binding to PSCA” (Guangzhou Shiyun Biotechnology Co., Ltd, priority 2022, published 2024).
Some results were stated once for a whole list of compounds, not compound by compound.

Test: Fluorescence stability detection
Assay type: physicochemical
Details: for time fluorescence decay began: after excitation at 780 nm; for time maximum fluorescence intensity maintained: after excitation at a wavelength of 780 nm
Protocol: Stability testing was divided into two groups: 1) stability testing under excitation wavelength and 2) stability testing of GGa-ICG under visible light. Excitation wavelength of 780 nm (GGa-ICG, ssDNA-ICG, and ICG) and visible light were used to excite the fluorescence probe GGa-ICG. Fluorescence detection was performed, and the changes in fluorescence intensity were recorded using a fluorescence spectrophotometer.

Compound	time fluorescence decay began	time maximum fluorescence intensity maintained
CC1(C)C(/C=C/C=C/C=C/C=C2\N(CCCCS(=O)(=O)O)c3ccc4ccccc4c3C2(C)C)=[N+](CCCCS(=O)(=O)[O-])c2ccc3ccccc3c21 [ICG, indocyanine green, reference compound]	30 to 40 min	20 to 30 min
GGa-ICG: near-infrared probe: PSCA-binding nucleic acid aptamer GGa linked at 3′ to an ICG derivative dye (DNA TGCCACTACAGCTGGTTCGGTTTGGTGACTTCGTTCTTCGTTGTGGT; 3'-ICG dye, further chemistry not given here)	30 to 40 min	20 to 30 min
